Measured data: PubChem BioAssay AID1259254 (NCATS, 2017)
Screen: 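Finding genes that stop cells copying their DNA twice in one cycle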 (primary screen). Cell system: human HCT116 colorectal cancer cells. Reagent: single siRNA against human genes. Time to read-out: 3 days. Read-out: 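Imaged Hoechst DNA stain sorts each cell into a cycle phase by DNA amount; per plate, G2 fraction set to 0% for non-targeting and 100% for GMNN siRNA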. Scale: G2 robust z-score and G2 cells, % of GMNN control: higher = more G2 cells, more excess DNA replication; raw share of cells in G2: higher = larger share of cells with G2 DNA content. Call rule: 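An siRNA counts as active if its G2 robust z-score lies at least 5 MADs above the screen median; here such calls match roughly 38% of GMNN control or more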.
In all, the deposit lists about 59,000 reagents; this is an unselected part. Over the whole deposit, about 1,550 (2.6%) got an active call. 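G2 share is only a proxy for re-replication; each gene was hit by three separate siRNAs, and active genes were retested.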 Raw values vary from plate to plate and are shown uncorrected. Reagents against one gene are numbered here. Not stated in the record: the amount of reagent.

gene knocked down | siRNA no. | G2 robust z-score | G2 cells, % of GMNN control | raw share of cells in G2 (%) | outcome
TTLL9 (GeneID 164395) | 1 | -0.443 | -0.147 | 5.89 | inactive
TTLL9 (GeneID 164395) | 2 | 1.89 | 16.2 | 10.6 | inactive
TTLL9 (GeneID 164395) | 3 | 2.86 | 23.1 | 14.4 | inactive
ZNF280A (GeneID 129025) | 1 | 3.51 | 27.6 | 12.6 | inactive
ZNF280A (GeneID 129025) | 2 | 1.67 | 14.7 | 8.26 | inactive
ZNF280A (GeneID 129025) | 3 | -0.501 | -0.558 | 3.33 | inactive
ARFGAP2 (GeneID 84364) | 1 | -0.247 | 1.23 | 5.94 | inactive
ARFGAP2 (GeneID 84364) | 2 | 0.424 | 5.95 | 6.35 | inactive
ARFGAP2 (GeneID 84364) | 3 | -0.548 | -0.885 | 4.46 | inactive
TIGD5 (GeneID 84948) | 1 | -0.745 | -2.28 | 3.99 | inactive
TIGD5 (GeneID 84948) | 2 | 0.804 | 8.62 | 9.68 | inactive
TIGD5 (GeneID 84948) | 3 | -0.809 | -2.73 | 3.45 | inactive
NELFCD (GeneID 51497) | 1 | 3.2 | 25.5 | 12.7 | inactive
NELFCD (GeneID 51497) | 2 | 0.536 | 6.74 | 7.11 | inactive
NELFCD (GeneID 51497) | 3 | -0.315 | 0.748 | 3.44 | inactive
SCGB1B2P (GeneID 643719) | 1 | -0.0556 | 2.58 | 4.62 | inactive
SCGB1B2P (GeneID 643719) | 2 | -0.801 | -2.67 | 2.31 | inactive
SCGB1B2P (GeneID 643719) | 3 | -1.02 | -4.22 | 1.92 | inactive
TRIM39 (GeneID 56658) | 1 | 2.18 | 18.3 | 14.5 | inactive
TRIM39 (GeneID 56658) | 2 | 3.42 | 27 | 14.1 | inactive
TRIM39 (GeneID 56658) | 3 | 0.671 | 7.69 | 7.54 | inactive
CD8B (GeneID 926) | 1 | 0.456 | 6.18 | 7.17 | inactive
CD8B (GeneID 926) | 2 | 0.13 | 3.88 | 5.43 | inactive
CD8B (GeneID 926) | 3 | 0.602 | 7.2 | 7.62 | inactive
ATOH7 (GeneID 220202) | 1 | 2.69 | 21.9 | 13.9 | inactive
ATOH7 (GeneID 220202) | 2 | -0.605 | -1.29 | 5.34 | inactive
ATOH7 (GeneID 220202) | 3 | -1.05 | -4.43 | 3.08 | inactive
ACSL5 (GeneID 51703) | 1 | -1.32 | -6.34 | 1.9 | inactive
ACSL5 (GeneID 51703) | 2 | -1.22 | -5.6 | 1.65 | inactive
ACSL5 (GeneID 51703) | 3 | -0.491 | -0.485 | 5.73 | inactive
JAZF1 (GeneID 221895) | 1 | -0.727 | -2.15 | 2.6 | inactive
JAZF1 (GeneID 221895) | 2 | -0.35 | 0.503 | 3.2 | inactive
JAZF1 (GeneID 221895) | 3 | -0.19 | 1.63 | 4.89 | inactive
STXBP5 (GeneID 134957) | 1 | -0.76 | -2.38 | 1.72 | inactive
STXBP5 (GeneID 134957) | 2 | -0.471 | -0.345 | 4.04 | inactive
STXBP5 (GeneID 134957) | 3 | 0.0935 | 3.63 | 4.25 | inactive
FAM149A (GeneID 25854) | 1 | -1.04 | -4.36 | 2.77 | inactive
FAM149A (GeneID 25854) | 2 | -0.354 | 0.479 | 4.15 | inactive
FAM149A (GeneID 25854) | 3 | -0.0291 | 2.76 | 4.26 | inactive
TMEM60 (GeneID 85025) | 1 | 0.663 | 7.63 | 7.32 | inactive
TMEM60 (GeneID 85025) | 2 | 1.07 | 10.5 | 6.29 | inactive
TMEM60 (GeneID 85025) | 3 | 1.02 | 10.2 | 6.15 | inactive
TULP1 (GeneID 7287) | 1 | -0.69 | -1.89 | 4.29 | inactive
TULP1 (GeneID 7287) | 2 | -0.5 | -0.551 | 3.68 | inactive
TULP1 (GeneID 7287) | 3 | 1.05 | 10.3 | 7 | inactive
SLC16A4 (GeneID 9122) | 1 | 0.718 | 8.02 | 7.58 | inactive
SLC16A4 (GeneID 9122) | 2 | 4.89 | 37.4 | 18.4 | inactive
SLC16A4 (GeneID 9122) | 3 | -0.383 | 0.272 | 4.66 | inactive

5 successive records already listed, quoted:
gene knocked down | siRNA no. | G2 robust z-score | G2 cells, % of GMNN control | raw share of cells in G2 (%) | outcome
TRIM39 (GeneID 56658) | 2 | 3.42 | 27 | 14.1 | inactive
TRIM39 (GeneID 56658) | 3 | 0.671 | 7.69 | 7.54 | inactive
CD8B (GeneID 926) | 1 | 0.456 | 6.18 | 7.17 | inactive
CD8B (GeneID 926) | 2 | 0.13 | 3.88 | 5.43 | inactive
CD8B (GeneID 926) | 3 | 0.602 | 7.2 | 7.62 | inactive
